Primary screen of a compound library

Amino acid sequences for entries named in this document (tags omitted).
UniProt P9WFT3, whole entry: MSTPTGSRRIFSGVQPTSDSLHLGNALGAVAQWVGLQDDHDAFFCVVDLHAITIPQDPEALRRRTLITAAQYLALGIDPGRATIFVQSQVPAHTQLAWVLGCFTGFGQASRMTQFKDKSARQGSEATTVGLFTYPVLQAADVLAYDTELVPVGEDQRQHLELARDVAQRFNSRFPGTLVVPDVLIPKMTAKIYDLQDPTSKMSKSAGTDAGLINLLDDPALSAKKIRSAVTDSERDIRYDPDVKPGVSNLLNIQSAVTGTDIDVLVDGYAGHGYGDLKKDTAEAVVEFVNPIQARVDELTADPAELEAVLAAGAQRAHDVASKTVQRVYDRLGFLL
UniProt I6X8D2, whole entry: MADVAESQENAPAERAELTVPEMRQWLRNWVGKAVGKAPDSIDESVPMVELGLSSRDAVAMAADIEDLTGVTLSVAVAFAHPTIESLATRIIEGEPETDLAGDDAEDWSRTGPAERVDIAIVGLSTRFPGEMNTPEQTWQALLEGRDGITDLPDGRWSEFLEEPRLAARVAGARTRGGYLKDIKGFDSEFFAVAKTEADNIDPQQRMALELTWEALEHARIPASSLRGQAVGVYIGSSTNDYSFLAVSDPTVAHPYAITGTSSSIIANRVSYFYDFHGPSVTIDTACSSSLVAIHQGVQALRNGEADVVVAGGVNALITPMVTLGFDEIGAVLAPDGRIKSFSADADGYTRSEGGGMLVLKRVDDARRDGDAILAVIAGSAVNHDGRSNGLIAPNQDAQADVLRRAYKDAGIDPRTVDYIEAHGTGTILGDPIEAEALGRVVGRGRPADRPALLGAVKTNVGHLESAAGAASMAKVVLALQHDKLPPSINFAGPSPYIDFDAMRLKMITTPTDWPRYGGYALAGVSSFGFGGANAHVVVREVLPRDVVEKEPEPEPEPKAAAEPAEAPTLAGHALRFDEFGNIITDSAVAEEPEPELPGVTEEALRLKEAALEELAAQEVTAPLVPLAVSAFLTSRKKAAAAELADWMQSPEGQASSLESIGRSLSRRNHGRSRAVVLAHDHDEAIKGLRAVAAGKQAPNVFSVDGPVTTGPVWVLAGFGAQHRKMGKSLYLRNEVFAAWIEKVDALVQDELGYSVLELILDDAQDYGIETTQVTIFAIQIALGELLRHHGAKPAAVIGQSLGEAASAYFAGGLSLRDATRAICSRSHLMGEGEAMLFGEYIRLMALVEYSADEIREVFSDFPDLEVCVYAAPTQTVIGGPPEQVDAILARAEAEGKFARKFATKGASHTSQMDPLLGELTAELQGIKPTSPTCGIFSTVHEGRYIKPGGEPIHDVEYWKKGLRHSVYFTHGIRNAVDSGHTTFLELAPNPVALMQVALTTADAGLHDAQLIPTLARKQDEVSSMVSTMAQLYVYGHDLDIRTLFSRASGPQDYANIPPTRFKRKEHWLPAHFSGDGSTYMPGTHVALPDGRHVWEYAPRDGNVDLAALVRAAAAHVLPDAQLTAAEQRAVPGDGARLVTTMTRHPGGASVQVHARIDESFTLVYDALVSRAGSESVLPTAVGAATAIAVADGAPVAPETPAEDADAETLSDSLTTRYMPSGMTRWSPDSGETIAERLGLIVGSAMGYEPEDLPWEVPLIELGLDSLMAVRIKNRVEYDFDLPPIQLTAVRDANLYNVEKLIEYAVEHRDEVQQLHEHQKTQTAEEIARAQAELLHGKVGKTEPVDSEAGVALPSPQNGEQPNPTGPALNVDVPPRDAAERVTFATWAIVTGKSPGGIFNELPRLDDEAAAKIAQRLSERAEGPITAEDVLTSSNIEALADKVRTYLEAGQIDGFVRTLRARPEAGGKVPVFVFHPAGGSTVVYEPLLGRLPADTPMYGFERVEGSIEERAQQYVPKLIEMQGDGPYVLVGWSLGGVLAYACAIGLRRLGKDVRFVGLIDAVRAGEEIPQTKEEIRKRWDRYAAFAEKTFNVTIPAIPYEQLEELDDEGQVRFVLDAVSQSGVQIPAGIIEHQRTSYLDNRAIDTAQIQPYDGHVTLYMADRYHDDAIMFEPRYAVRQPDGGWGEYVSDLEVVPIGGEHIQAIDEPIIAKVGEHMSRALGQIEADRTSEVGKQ
UniProt P9WNZ1, whole entry: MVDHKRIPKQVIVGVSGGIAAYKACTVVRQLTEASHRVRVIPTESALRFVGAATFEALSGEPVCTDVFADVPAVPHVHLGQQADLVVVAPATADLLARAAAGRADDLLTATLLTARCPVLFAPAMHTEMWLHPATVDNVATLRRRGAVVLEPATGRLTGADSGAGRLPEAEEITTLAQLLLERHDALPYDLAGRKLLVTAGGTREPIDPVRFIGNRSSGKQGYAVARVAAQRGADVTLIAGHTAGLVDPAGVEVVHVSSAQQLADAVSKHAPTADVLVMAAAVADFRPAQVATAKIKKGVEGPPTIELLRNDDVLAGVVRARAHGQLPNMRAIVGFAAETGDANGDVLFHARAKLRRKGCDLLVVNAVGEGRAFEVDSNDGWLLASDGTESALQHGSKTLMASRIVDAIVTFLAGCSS

From ChEMBL document CHEMBL3988442, “University of Dundee, Small-Polar-MMV Screening Library” (2021).

A: 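Enzyme assay of tryptophanyl-tRNA synthetase; the read-out is not stated. Target: Tryptophan-tRNA ligase, Mycobacterium tuberculosis (UniProt P9WFT3). Tested at 10 µM. Higher most likely means stronger inhibition; the record gives no direction and few retests gave an IC50. Size under these conditions: about 65,000 compounds, about 64 of them at 50% or above in at least one test.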
B: 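Enzyme assay of the thioesterase domain of polyketide synthase 13; the read-out is not stated. Target: Polyketide synthase Pks13, Mycobacterium tuberculosis (UniProt I6X8D2). Concentration: 30 µM. The record gives no direction; the compounds picked for IC50 retests had high values, so higher reads as stronger inhibition. About 67,000 compounds were tested under these conditions; 0.46% (about 300) showed 50% or more at least once.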
C: 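Enzyme assay of CoaBC with a phosphate dye (Biomol Green) read at 650 nm. Target: Coenzyme A biosynthesis protein CoaBC, Mycobacterium tuberculosis (UniProt P9WNZ1). Compounds at 30 µM. Direction is inferred from only a few compounds that gave an IC50; most scored high, so higher reads as stronger inhibition. Most strong results did not repeat in a second test. Size under these conditions: about 67,000 compounds, about 40 of them at 50% or above in at least one test.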

The filed quantity is “Percent Effect” (%).
How 0% and 100% were set is not recorded. Most values in the screen are low, and negative values occur.
The compounds are a random part of those screened.

* Cn1c(Cl)cnc1CN1CCCC1c1ccc2c(c1)OCCO2 (stereo not given) | A: -1.886%; B: -13.41%; C: 0.1212%
* O=C(O)[C@@H]1CN(C(=O)c2ccc3[nH]nnc3c2)C[C@H]1c1cccc(F)c1 | A: -1.562%; C: 12.26%
* COc1ccc(CNC(=O)Nc2cccnc2OC)cc1O | A: 13.14%; B: -2.18%; C: -1.281%
* CC(C)(C)c1cnc(CN2CCCCC2Cn2cccn2)o1 (stereo not given) | A: 49.06%; B: -19.05%; C: 4.318%
* Cn1cc(NC(=O)Nc2ccccn2)cc(Cl)c1=O | A: 17.23%; B: -0.8317%; C: 17.51%
* Cn1ccnc1CN1C[C@@H]2[C@@H](C1)OCC(=O)N2CC1CCCC1 | A: -2.905%; B: 1.298%; C: 4.511%
* CCC(CO)N(Cc1ccsc1)Cc1c(C)nn(C)c1Cl (stereo not given) | A: 0.9032%; B: -5.799%; C: 2.02%
* Cc1nc2c(c(NCCc3nccs3)n1)CCN(CC1CC1)CC2 | A: 3.213%; B: -4.393%; C: 9.912%
* Cc1nc(-c2cn(CCN)nn2)n(-c2ccc(C(F)(F)F)cc2)n1 | A: -4.515%; B: -4.483%; C: 2.683%
* CS(=O)(=O)CCCNC1(c2ccc(Br)cc2)CCC1 | A: -3.979%; B: -37.76%; C: 7.025%
* O=C1[C@@H]2CCN(CC3CC3)C[C@@H]2OCCN1c1ccsc1 | A: -1.647%; B: 2.338%; C: 3.484%
* Cc1nc(NC(=O)C(C)N2CCN(c3cnccn3)CC2)sc1C (stereo not given) | A: -5.589%; B: -7.419%; C: 3.968%
* CCN(CC)S(=O)(=O)c1ccc2c(c1)N(Cc1ccccn1)C(=O)CS2 | A: 0.3393%; B: -31.32%; C: -1.449%
* CN1CC2(CCN(Cc3cccc(C#N)c3)CC2)CC1=O | A: 9.55%; B: 6.509%; C: 12.45%
* Cc1[nH]c2c(C)ccc(C)c2c1CC(=O)NCCNc1cccnc1 | A: 14.45%; B: 0.0811%
* CC(C)CC(=O)N1CCC2(CC1)COCCN2Cc1ccc(F)cc1 | A: 0.07639%; B: -3.076%; C: -3.854%
* CCn1cnnc1C1CCN(C(=O)c2cccc3c2ccn3C)CC1 | A: 0.2398%; B: -8.101%; C: 4.337%
* COCCNC(=O)c1cc(OC)c2ccoc2c1 | A: 3.805%; B: -11.87%; C: 10.06%
* Cn1cc(C(=O)NC[C@@H]2OC[C@H]3CN(Cc4ccco4)CC[C@H]32)cn1 | A: -3.043%; B: -15.94%; C: -0.2151%
* COCCN1CCC2(COCc3c(C)nc(N(C)C)nc32)C1 (stereo not given) | A: -11.13%; B: -19.25%; C: 4.206%

2 of the entries, repeated:

With COCCNC(=O)c1cc(OC)c2ccoc2c1 the screen gave A: 3.805%; B: -11.87%; C: 10.06%.
With Cn1c(Cl)cnc1CN1CCCC1c1ccc2c(c1)OCCO2 (stereo not given) the screen gave A: -1.886%; B: -13.41%; C: 0.1212%.